Assay results as given in PMC9253056.
Results are given in words; binding and its absence hold for the method and conditions named. Binding seen in cells or lysates may run through a third protein. Some results given as binding are weak or reduced against the parent protein; the word gives no strength.

The chains behind the UniProt entries cited, without tags or fusion partners.
UniProt O15550: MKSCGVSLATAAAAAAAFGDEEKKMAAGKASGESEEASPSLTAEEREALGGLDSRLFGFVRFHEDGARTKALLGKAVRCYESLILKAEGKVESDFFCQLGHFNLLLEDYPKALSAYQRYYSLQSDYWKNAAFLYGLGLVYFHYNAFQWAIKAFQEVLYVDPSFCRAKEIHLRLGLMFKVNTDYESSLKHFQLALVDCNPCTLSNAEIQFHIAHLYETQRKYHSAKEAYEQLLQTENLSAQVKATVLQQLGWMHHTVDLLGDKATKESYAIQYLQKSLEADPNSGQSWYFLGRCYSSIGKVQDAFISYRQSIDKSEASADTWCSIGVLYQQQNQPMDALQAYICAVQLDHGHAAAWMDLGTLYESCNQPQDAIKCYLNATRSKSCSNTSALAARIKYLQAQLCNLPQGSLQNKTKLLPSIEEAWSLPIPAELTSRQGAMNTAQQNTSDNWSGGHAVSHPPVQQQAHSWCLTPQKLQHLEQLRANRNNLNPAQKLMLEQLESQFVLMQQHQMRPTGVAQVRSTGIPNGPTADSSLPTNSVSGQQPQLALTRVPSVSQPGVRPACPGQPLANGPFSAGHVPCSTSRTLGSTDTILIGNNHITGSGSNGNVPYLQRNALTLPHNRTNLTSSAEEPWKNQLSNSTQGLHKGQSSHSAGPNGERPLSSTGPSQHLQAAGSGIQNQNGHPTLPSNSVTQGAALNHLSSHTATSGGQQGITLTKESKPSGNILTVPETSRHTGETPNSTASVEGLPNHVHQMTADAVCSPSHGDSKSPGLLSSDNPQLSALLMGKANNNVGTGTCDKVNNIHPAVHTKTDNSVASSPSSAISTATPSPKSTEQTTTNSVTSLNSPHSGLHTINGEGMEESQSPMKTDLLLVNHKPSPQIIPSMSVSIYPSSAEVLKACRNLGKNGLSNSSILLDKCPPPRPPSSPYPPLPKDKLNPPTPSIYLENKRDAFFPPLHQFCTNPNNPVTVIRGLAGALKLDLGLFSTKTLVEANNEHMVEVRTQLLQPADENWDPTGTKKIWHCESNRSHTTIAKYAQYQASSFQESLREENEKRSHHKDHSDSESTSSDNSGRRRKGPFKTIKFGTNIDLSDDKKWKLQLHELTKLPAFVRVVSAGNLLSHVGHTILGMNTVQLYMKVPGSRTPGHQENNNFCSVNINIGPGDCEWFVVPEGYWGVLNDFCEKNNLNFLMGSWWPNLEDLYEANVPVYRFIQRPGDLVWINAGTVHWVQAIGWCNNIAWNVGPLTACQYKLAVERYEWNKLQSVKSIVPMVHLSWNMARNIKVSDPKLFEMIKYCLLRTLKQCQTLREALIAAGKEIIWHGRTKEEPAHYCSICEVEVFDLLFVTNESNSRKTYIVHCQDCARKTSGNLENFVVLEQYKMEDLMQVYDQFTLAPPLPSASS
UniProt Q9Y508: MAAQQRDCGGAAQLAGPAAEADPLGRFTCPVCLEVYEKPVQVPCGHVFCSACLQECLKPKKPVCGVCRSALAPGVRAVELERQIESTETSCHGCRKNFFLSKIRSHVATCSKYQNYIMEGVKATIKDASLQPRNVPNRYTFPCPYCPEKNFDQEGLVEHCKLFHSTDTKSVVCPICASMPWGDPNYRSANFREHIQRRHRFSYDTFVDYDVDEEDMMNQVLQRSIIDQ

Assays:
[1] = biological target: UTX (ubiquitously transcribed tetratricopeptide repeat on chromosome X), overexpressed (human) (UniProt O15550); experiment: co-IP; HEK293T cells transfected with the indicated plasmids (overexpression); IP by anti-UTX or anti-HA; lysates incubated with antibodies and Dynabeads Protein G overnight at 4 °C; washed with pre-lysis buffer with additional 50 mM NaCl; immunoblotting
[2] = biological target: UTX, endogenous in HK-2 cells (human (endogenous in HK-2)) (UniProt O15550); experiment: co-IP; endogenous proteins in HK-2 cells (control cells), with or without PA treatment; anti-PHGDH IP in Fig. 8f; Dynabeads Protein G overnight at 4 °C; immunoblotting

In the case of “HA-tagged RNF114 (from UniProt Q9Y508 1-228)”, the binding [1] was “binds”.
For “RNF114, endogenous in HK-2 cells (from UniProt Q9Y508 1-228)”, the binding [2] was “binds”.
